Laboratory results from paper doi:10.1101/2020.10.13.337683.
Results are given in words; binding and its absence hold for the method and conditions named. In cells and extracts the contact can be indirect. Some entries that bind do so weakly or less than the wild type. Sequences can lack the tags named with a protein.

Chains of the proteins cited; added tags and fusions are not shown.
UniProt P0A9A6: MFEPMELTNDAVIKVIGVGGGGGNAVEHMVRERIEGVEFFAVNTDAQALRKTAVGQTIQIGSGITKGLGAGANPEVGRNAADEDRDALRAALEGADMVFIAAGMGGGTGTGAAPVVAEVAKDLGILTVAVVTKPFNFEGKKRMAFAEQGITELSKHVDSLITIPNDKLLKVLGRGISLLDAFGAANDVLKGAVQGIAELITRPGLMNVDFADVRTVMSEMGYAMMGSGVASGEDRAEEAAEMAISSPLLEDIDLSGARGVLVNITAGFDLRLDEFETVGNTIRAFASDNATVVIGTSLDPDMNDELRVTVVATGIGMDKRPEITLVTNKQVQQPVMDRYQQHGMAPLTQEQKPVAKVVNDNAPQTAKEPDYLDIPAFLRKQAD

Target: T1, N-terminal GFP tagged MutS (E. coli) (UniProt P23909)
T1 sequence: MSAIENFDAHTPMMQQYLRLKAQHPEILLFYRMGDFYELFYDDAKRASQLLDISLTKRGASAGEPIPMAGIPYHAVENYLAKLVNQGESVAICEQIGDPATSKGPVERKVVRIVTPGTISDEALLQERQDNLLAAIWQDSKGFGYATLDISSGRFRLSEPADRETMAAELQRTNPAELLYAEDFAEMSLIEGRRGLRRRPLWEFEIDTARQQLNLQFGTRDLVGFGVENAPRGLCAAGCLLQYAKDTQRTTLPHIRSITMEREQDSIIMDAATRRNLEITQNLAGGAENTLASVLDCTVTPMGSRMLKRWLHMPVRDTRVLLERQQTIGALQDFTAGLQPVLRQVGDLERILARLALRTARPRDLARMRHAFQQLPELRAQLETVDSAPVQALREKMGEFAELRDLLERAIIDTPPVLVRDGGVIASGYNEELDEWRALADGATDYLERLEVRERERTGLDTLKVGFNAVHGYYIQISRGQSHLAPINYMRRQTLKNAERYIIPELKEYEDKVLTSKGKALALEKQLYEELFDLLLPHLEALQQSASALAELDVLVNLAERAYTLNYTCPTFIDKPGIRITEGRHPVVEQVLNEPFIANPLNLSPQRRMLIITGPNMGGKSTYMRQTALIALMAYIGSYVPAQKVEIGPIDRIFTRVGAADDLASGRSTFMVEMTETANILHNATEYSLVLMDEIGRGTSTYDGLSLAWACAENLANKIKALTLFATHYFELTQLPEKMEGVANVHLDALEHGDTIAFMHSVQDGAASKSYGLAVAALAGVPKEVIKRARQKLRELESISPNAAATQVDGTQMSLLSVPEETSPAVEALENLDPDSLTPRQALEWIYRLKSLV
Assay: co-IP

binding: binds
Substance: FtsZ (from UniProt P0A9A6 1-383)
